Results reported in the supplement of paper PMC6078165.
Values are relative to the signal before dosing, not to a vehicle control; the signal also falls without drug.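 Fibroblast labels denote human fibroblasts, mainly primary ones from uterus (C12385, HUF), lung (H6013), bone (Hs27A), adrenal (HADF) and skin (WS1), plus mammary HMF and breast cancer-associated Hs343T. Cancer cells are basal-like or mesenchymal-like triple-negative breast cancer lines. A hit is a response shift exceeding 3x replicate standard deviation. The tissue of the other fibroblasts is not given here.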

Test system: MDAMB231
Assay: relative JC-1 red fluorescence (viability) vs pre-drug, coculture with fibroblast (fraction); higher = more viable cancer cells
Conditions: 1 µM
Description: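 JC-1 labelled TNBC cells cocultured 1:1 (1,500 cells each) with CellTrace Violet stained primary or stromal fibroblasts in 384-well plates in FluoroBrite medium, treated with one of 42 anticancer drugs at 0.1, 1, 10 or 100 uM. JC-1 red fluorescence (mitochondrial integrity in cancer cells only) was read by plate reader every 8 h for 72 h. Values are normalised to each well's pre-drug value. The stock of one drug was tenfold lower, so its dose labels may be too high.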

CCCCCOC(=O)Nc1nc(=O)n([C@@H]2O[C@H](C)[C@@H](O)[C@H]2O)cc1F [Capecitabine]
relative JC-1 red fluorescence
Conditions | 8 h | 16 h | 24 h | 32 h | 40 h | 48 h | 56 h | 64 h | 72 h
coculture fibroblast: C12385 | 0.778 | 0.6836 | 0.739 | 0.635 | 0.58 | 0.564 | 0.532 | 0.544 | 0.534
coculture fibroblast: H6013 | 0.916 | 0.829 | 0.7834 | 0.7611 | 0.7331 | 0.7234 | 0.689 | 0.65997 | 0.61
coculture fibroblast: H6019 | 0.751 | 0.64 | 0.639 | 0.585 | 0.54 | 0.542 | 0.506 | 0.504 | 0.47
coculture fibroblast: H6076 | 0.8237 | 0.735 | 0.6901 | 0.666 | 0.629 | 0.585 | 0.562 | 0.557 | 0.544
coculture fibroblast: H6231 | 0.8843 | 0.792 | 0.702 | 0.6614 | 0.612 | 0.573 | 0.5292 | 0.522 | 0.497
coculture fibroblast: HADF | 0.907 | 0.8221 | 0.77291 | 0.73947 | 0.7058 | 0.679 | 0.647 | 0.643 | 0.593
coculture fibroblast: HCFa | 0.901 | 0.823 | 0.784 | 0.741 | 0.6856 | 0.6399 | 0.597 | 0.569 | 0.514
coculture fibroblast: HCPF | 0.871 | 0.748 | 0.704 | 0.667 | 0.61 | 0.564 | 0.532 | 0.50492 | 0.48743
coculture fibroblast: HHSteC | 0.9149 | 0.838 | 0.786 | 0.742 | 0.696 | 0.662 | 0.612 | 0.594 | 0.552
coculture fibroblast: HMF | 0.885 | 0.7896 | 0.72 | 0.676 | 0.626 | 0.588 | 0.543 | 0.519 | 0.503
coculture fibroblast: HPFa | 0.9381 | 0.8647 | 0.813 | 0.749 | 0.713 | 0.67 | 0.614 | 0.587 | 0.521
coculture fibroblast: HUF | 0.844 | 0.67239 | 0.723 | 0.591 | 0.5298 | 0.528 | 0.483 | 0.48 | 0.467
coculture fibroblast: Hs5 | 0.896 | 0.777 | 0.727 | 0.681 | 0.633 | 0.578 | 0.538 | 0.506 | 0.48
coculture fibroblast: Hs27A | 0.837 | 0.777 | 0.733 | 0.703 | 0.655 | 0.617 | 0.598 | 0.582 | 0.517
coculture fibroblast: Hs343T | 0.858 | 0.749 | 0.677 | 0.623 | 0.572 | 0.525 | 0.474 | 0.453 | 0.426
coculture fibroblast: WS1 | 0.7844 | 0.676 | 0.67 | 0.605 | 0.564 | 0.544 | 0.502 | 0.489 | 0.466
